For at least one entry, the source does not settle the construct or the ends of the probe. Negatives hold for the conditions tested. For part of these data: At least one verdict rests on a figure or table, not on a statement of the authors.
Tests used:
MBP = assay: EMSA; conditions: MBP negative control; Beyotime chemiluminescent EMSA kit, biotin probes; pH and temperature not stated; recombinant protein; protein details: MBP; label: …
[1] = tested on: MBP-AaMYC3 (Artemisia annua); assay: EMSA; conditions: Beyotime chemiluminescent EMSA kit, biotin probes; pH and temperature not stated; recombinant protein; protein details: MBP; label: biotin

Sequence | binding result (MBP) | binding result [1]
ACTAGCAAATAAGATAATGCCACGTGTATGAAACAGCCATGTAGGT (double strand) [pAaHD1-Gbox] | no binding | binds
ACTAGCAAATAAGATAATGCCTTTTGTATGAAACAGCCATGTAGGT (double strand) [pAaHD1-mGbox] |  | no binding
